Test results from article PMC12391806.
No constants are given. Whether binding was seen depends on the method and setting. In cells and extracts the contact can be indirect. Some entries that bind do so weakly or less than the wild type.

The chains behind the UniProt entries cited, without tags or fusion partners. Where a name states a change or a piece, a line headed by the entry shows the natural chain unless it says otherwise.
UniProt P49674: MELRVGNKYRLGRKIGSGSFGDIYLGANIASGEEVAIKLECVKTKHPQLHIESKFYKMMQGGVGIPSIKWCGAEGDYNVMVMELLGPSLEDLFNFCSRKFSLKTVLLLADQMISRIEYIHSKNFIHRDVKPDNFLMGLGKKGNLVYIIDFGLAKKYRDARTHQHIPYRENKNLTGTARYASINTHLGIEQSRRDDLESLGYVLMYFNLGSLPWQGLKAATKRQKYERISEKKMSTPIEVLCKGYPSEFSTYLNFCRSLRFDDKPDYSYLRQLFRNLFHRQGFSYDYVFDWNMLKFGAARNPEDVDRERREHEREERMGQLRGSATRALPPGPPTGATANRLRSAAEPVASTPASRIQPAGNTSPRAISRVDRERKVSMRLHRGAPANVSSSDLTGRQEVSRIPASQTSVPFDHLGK
UniProt O75494: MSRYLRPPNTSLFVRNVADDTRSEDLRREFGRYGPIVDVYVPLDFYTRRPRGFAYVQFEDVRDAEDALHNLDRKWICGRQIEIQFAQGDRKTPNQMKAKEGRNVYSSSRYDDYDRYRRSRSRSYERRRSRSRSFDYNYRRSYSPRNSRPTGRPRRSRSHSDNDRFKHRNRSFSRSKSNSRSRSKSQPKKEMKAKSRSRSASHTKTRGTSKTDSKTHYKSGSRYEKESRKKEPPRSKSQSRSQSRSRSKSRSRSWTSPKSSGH

Columns and labels:
V5-tagged CK1ε = V5-tagged CK1ε (UniProt P49674); test: co-IP; HEK293T cotransfected with CK1ε-V5 and Flag-tagged WT or point-mutated SRSF10 (Fig. 8F); beads not stated
Flag-tagged SRSF10 (WT) = Flag-tagged SRSF10 (WT) (UniProt O75494); test: co-IP; HEK293T cotransfected with Flag-SRSF10 and CK1ε-GFP; immunoprecipitated with anti-Flag beads; Western blot
[1] = molecular target: serine/arginine-rich splicing factor 10 (SRSF10), endogenous in A549 cells (human (endogenous in A549)) (UniProt O75494); test: co-IP; A549 cell lysates immunoprecipitated with anti-SRSF10 antibody or IgG; endogenous CK1ε and CK1δ detected by Western blot
Flag-tagged CK1ε (WT) = Flag-tagged CK1ε (WT) (UniProt P49674); test: co-IP; HEK293T transfected with Flag-CK1ε, Flag-CK1ε-K38R or control vector; immunoprecipitated with anti-Flag beads; endogenous SRSF10 detected
[2] = molecular target: Flag-tagged kinase-dead mutant CK1ε-K38R (UniProt P49674); test: as above

## Flag-tagged SRSF10 (WT) (from UniProt O75494 1-262)
V5-tagged CK1ε
  binding: binds

## GFP-tagged CK1ε (from UniProt P49674 1-416) (enzyme)
Flag-tagged SRSF10 (WT)
  binding: binds

## SRSF10-S23A-Flag (from UniProt O75494 1-262)
V5-tagged CK1ε
  binding: binds

## SRSF10-S23A/S133A-Flag (from UniProt O75494 1-262)
V5-tagged CK1ε
  binding: binds

## SRSF10-S133A-Flag (from UniProt O75494 1-262)
V5-tagged CK1ε
  binding: binds

## casein kinase 1ε (CK1ε), endogenous in A549 cells (from UniProt P49674 1-416) (enzyme)
[1]
  binding: binds

## serine/arginine-rich splicing factor 10 (SRSF10), endogenous in HEK293T cells (from UniProt O75494 1-262)
Flag-tagged CK1ε (WT)
  binding: binds
[2]
  binding: no binding
